This data set concerns human MUC1 peptide. Briefly: PEPperMAP epitope mapping of anti-MUC1 antibodies. The format is binding. Particulars: peptide microarray, antibody 1 μg/ml.

Where a chain is given by its changes, count along the chain named. “Also recorded” adds a separate entry of the source.

B1: HT186-D11: parent anti-MUC1 antibody (Thie H. et al.) from which H02 was affinity matured (antibody, V domains shown)
VH: QMQLVQSEAELKKPGASVKVSCKASGYSFTGHYMHWVRQAPGQGLEWMGWIDPVTGGTKYAQNFQGWVTMTRDTSIRTAYLELSRLRSDDTAMYYCAREVTGDRGQFDKWGQGTLVTVAS
VL: QSVLTQPPSVSVAPGKTARITCGGNNIGSKSVHWYQQKPGQAPALVIYYGSNRPSGIPERFSGSNSGNTATLTISRVEAGDEADYYCQVWDSSSDWVFGGGTKLTVL
B1: the “minimal consensus motif recognized (epitope)” value is on record as “TRPAP”.

B2: 1993-H02: anti-MUC1 antibody variant from affinity maturation of HT186-D11, with HT186-D11 light chain; developed as scFv (antibody, V domains shown)
VH: B1 VH with G31S, Y33F, V100A, T101R, G102A
VL: B1 VL
In the case of B2, under “listed as H02”, the “minimal consensus motif recognized (epitope)” value was “TRPAP; also recorded: DTRPAP”.

These data come from patent US20230310629A1, “BISPECIFIC ANTIBODY-DRUG CONJUGATES TARGETING EGFR AND MUC1 AND USES THEREOF” (Merck Patent GmbH, priority 2020, published 2023).
